From PubChem BioAssay AID493014 (National Center for Advancing Translational Sciences (NCATS), 2011)
In all, about 340,000 compounds went through this assay and about 170 (0.05%) were called active. The shares of active, inactive and inconclusive entries below differ from those in the screen. Calls come from the whole dose curve; as a rule, active = well fitted inhibition curve with a large enough effect in the signal ratio, with a control signal flat (not every such curve was filed as active); inconclusive = small, poorly fitted or top-dose-only effect, or effect the other way, or a change in a side signal; inactive = flat fitted curve, though single readings scatter; the % refers to the signal ratio. Potencies of inconclusive entries are doubtful fits and often do not repeat.

Test: qHTS Assay to Find Inhibitors of Chronic Active B-Cell Receptor Signaling;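 for activity change, negative = inhibition: plate controls were basal doxycycline-induced cells for no effect and cells given 10 µM MG132 for full effect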
Conditions: ABC-DLBCL IkBa-CBG/CBR reporter, luminescence ratio (green luciferase fused to IkBa over red control in TMD8 lymphoma cells), 4 h; activity change, negative = inhibition: at 46.1 µM (top of the series)
In short: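 Cell line TMD8 (human ABC DLBCL), stably expressing tet-inducible CBG68-IkBa fusion and CBR; IMDM/0.5% FBS; cpd up to 46 uM; dox induction, 4 h, 37C/5% CO2; dual luminescence; green/red ratio; MG132 control.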
Potency is the fitted concentration of half-maximal effect.

Row | SMILES | activity change, negative = inhibition | Potency
1 | COc1ccc(Cc2nc3ccc(C(=O)NCCCSC)cc3o2)cc1OC | inconclusive: 0.525% | 
2 | O=C1NC2(CCCCC2)C(=O)N1/N=C/c1ccc(O)cc1O | inconclusive: -11.9% | 
3 | COc1ccccc1-c1c(C)nn2c(N3CCC(C(N)=O)CC3)cc(C)nc12 | inconclusive: -3.64% | 
4 | O=C(Nc1cccc(Cl)c1)c1ccc2c(c1)SC1=NS(=O)(=O)CCN12 | inconclusive: 9.12% | 
5 | Cc1nc(SCC(=O)NCc2ccco2)[nH]c(=O)c1C | inconclusive: -86.8% | 
6 | COC(=O)c1ccc(OCC2c3cc(OC)c(OC)cc3CCN2C(=O)Cc2ccc(OC)c(OC)c2)cc1 (centres undefined) | inconclusive: -11.1% | 
7 | CCCCOc1ncnc2c1[nH]c1ccc(OCC)cc12 | inconclusive: 6.82% | 
8 | Cc1cc(C)c(C#N)c(SCc2cc3c(cc2Cl)OCO3)n1 |  | inconclusive: 35.5 µM [falling, single point]
9 | C=CCn1c(CNC(=O)c2ccccc2C)nnc1SCC(=O)NC1CCCC1 | inconclusive: 10.9% | 
10 | COc1cc(CC(=O)OCC(=O)NCc2cccs2)cc(OC)c1OC | inconclusive: 0.375% | 
11 | Oc1ccc(C2=Nn3c(nnc3-c3ccco3)SC2)cc1O |  | inconclusive: 29.1 µM [falling, single point]
12 | O=C(Cn1ncc(N2CCOCC2)c(Cl)c1=O)c1ccc(Cl)cc1 | inactive | 
13 | O=C(Nc1ccc(Cl)cc1)Nc1cccc2nsnc12 |  | inconclusive: 11.2 µM [falling, partial curve]
14 | COc1ncccc1-c1nnn(-c2ccc(Cl)c(Cl)c2)n1 | inconclusive: 12% | 
15 | C=CCN1C(=S)CC(c2ccccc2)=Nc2ccccc21 | inconclusive: 5.98% | 
16 | COc1ccc(CCNC(=O)Cn2nc(-c3ccc(Cl)cc3)ccc2=O)cc1OC | inconclusive: 1.04% | 
17 | CCCc1nc2ccc(NC(=O)NCCC(=O)OCC)cc2c(=O)n1Cc1ccc(Cl)cc1 | inconclusive: 13.4% | 
18 | CCOc1ccc(N2C=Nc3ccc(OCC)cc3C2)cc1 | inactive | 
19 | COc1cn(CC(=O)Nc2cccc(C)c2)c(CN2CCCCC2)cc1=O | inactive | 
20 | CCCN1CCC(=NNc2ccc(S(=O)(=O)N(CC)CC)cc2[N+](=O)[O-])CC1 |  | inconclusive: 6.31 µM [falling, partial curve]
21 | CCOCc1nnc(NC(=O)c2c(OC)cccc2OC)s1 |  | inconclusive: 6.51 µM [rising, partial curve, poor fit]
22 | COc1cc2c(cc1OC)-c1nc3ccccc3c(=O)n1C(C)(C)C2 |  | inconclusive: 0.184 µM [falling, full curve, poor fit]
23 | Cc1cc(NS(=O)(=O)Cc2ccccc2)no1 |  | inconclusive: 4.11 µM [falling, partial curve, poor fit]
24 | Cc1ccc(Nc2nnc(SCC(=O)NC3CC3)s2)cc1 | inactive | 
25 | COc1ccc(N2CCN(C(CNC(=O)c3ccc4c(c3)OCO4)c3cccnc3)CC2)cc1 (centres undefined) | inactive | 
26 | Cc1ccc2c(c1)C(=O)c1c(C(=O)O)cccc1-2 |  | inconclusive: 1.78 µM [activator, full curve]
27 | CCOC(=O)c1ccc(NC(=O)C2CCCN(c3cnccn3)C2)cc1 (centres undefined) | inactive | 

Copied from the list:
Potency with COc1cc2c(cc1OC)-c1nc3ccccc3c(=O)n1C(C)(C)C2 is entered as inconclusive: 0.184 µM [falling, full curve, poor fit]
Potency with Cc1cc(NS(=O)(=O)Cc2ccccc2)no1 is entered as inconclusive: 4.11 µM [falling, partial curve, poor fit]
activity change, negative = inhibition with COc1ccccc1-c1c(C)nn2c(N3CCC(C(N)=O)CC3)cc(C)nc12 is entered as inconclusive: -3.64%
activity change, negative = inhibition with COc1cc(CC(=O)OCC(=O)NCc2cccs2)cc(OC)c1OC is entered as inconclusive: 0.375%
Potency with CCCN1CCC(=NNc2ccc(S(=O)(=O)N(CC)CC)cc2[N+](=O)[O-])CC1 is entered as inconclusive: 6.31 µM [falling, partial curve]
Potency with O=C(Nc1ccc(Cl)cc1)Nc1cccc2nsnc12 is entered as inconclusive: 11.2 µM [falling, partial curve]

Next part

Row | SMILES | activity change, negative = inhibition | Potency
28 | COc1ccc(N2CCN(CNC(=O)c3ccccc3)CC2)cc1 | inactive | 
29 | CCCNC(=O)c1ccc(COc2ccc(C(C)(C)C)cc2)o1 |  | inconclusive: 35.5 µM [falling, single point]
30 | O=C(O)c1ccc(N/N=C/c2c[nH]c3ccccc23)cc1 | inconclusive: 1.23% | 
31 | COc1ccc(NC(=O)CN2C(=O)CSc3ncccc32)cc1 | inconclusive: -5.82% | 
32 | CC(=O)c1sc2nsc(SCCN3CCCC3)c2c1N | inconclusive: 2.16% | 
33 | Cc1ccc(/C=C/C(=O)O)cc1S(=O)(=O)N1CCC(Cc2ccccc2)CC1 | inconclusive: 6.33% | 
34 | CN(NC1OC(=O)c2ccccc21)c1ccc(C(F)(F)F)cc1[N+](=O)[O-] (centres undefined) | inconclusive: 5.15% | 
35 | O=C(c1ccccc1)c1ccc(C(=O)N2CCN(c3ccccc3Cl)CC2)cc1 | inactive | 
36 | N#CCC(=O)Nc1ccc(C(=O)OCC(=O)NC(=O)NCc2ccco2)cc1 |  | inconclusive: 29.1 µM [falling, single point]
37 | COC(=O)C1=C(C)N(C(C)c2ccccc2)C(=O)C1 (centres undefined) | inconclusive: -7.61% | 
38 | CCOC(=O)C1=C(C)NC(SCC(N)=O)=C(C#N)C1c1ccccc1 (centres undefined) |  | inconclusive: 2.24 µM [falling, full curve, poor fit]
39 | COc1cccc(OCCn2cc(C(C)=O)c3ccccc32)c1 |  | inconclusive: 12.6 µM [falling, partial curve, poor fit]
40 | CC(C)(C)Cc1nnc(NC(=O)Cc2cccs2)s1 | inactive | 
41 | COc1cc2c(cc1OC)CN(C(=O)CNC(=O)c1ccc(OC(F)F)cc1)CC2 | inactive | 
42 | CCOC(=O)C1(CCOC)CCN(Cc2ccc3nonc3c2)CC1 | inactive | 
43 | CCN(CC)c1ccc2cc(S(=O)(=O)c3ccc(C)cc3)c(=O)oc2c1 | inactive | 
44 | N#C/C(=C\c1ccc(O)c(O)c1)C(=O)NCCc1ccccc1 |  | inconclusive: 29.1 µM [falling, single point]
45 | COc1ccc(C(=O)c2ccc(N(C)C)cc2)c2ccccc12 |  | inconclusive: 9.2 µM [falling, partial curve, poor fit]
46 | COc1ccc(NC(=O)Nc2nnc(-c3ccco3)s2)cc1 | inconclusive: 5.64% | 
47 | Cc1ccc(OC(F)F)c(NC(=O)Nc2cccc(C(F)(F)F)c2)c1 |  | inconclusive: 7.31 µM [rising, partial curve]
48 | COc1cc2c(cc1OC)C(C)N(S(=O)(=O)c1cnc(Cl)c(Cl)c1)CC2 (centres undefined) |  | inconclusive: 8.91 µM [falling, partial curve]
49 | O=C(NCc1nc2ccccc2[nH]1)C1=C[C@@H](c2csc3ccccc23)C[C@@H](OCCCCO)O1 | inconclusive: -16% | 
50 | Cc1ccc(Cl)c(OCCN2CCCC(C)C2)c1 (centres undefined) | inconclusive: 0.321% | 
51 | Cc1ccc(-n2nc3ccc(NC(=O)c4ccco4)cc3n2)cc1 |  | inconclusive: 11.6 µM [rising, partial curve, poor fit]
52 | Fc1cccc2sc(Nc3nnc(-c4ccccc4)o3)nc12 | inconclusive: 220% [cytotoxic] | 
53 | N#CC1(C#N)CC(C=O)=C(N)C1(C#N)CC(=O)C12CC3CC(CC(C3)C1)C2 (centres undefined) | inconclusive: -6.93% | 
54 | Cc1cccc(NC(=O)CN(CC2CCCO2)C(=O)c2oc3ccccc3c2C)c1C (centres undefined) | inconclusive: 7.7% | 

Row | SMILES | activity change, negative = inhibition | Potency
55 | Cn1ncc2c(Nc3ccc(Cl)cc3)ncnc21 |  | inconclusive: 20 µM [falling, single point]
56 | O=C(COc1ccc2cc(Br)ccc2c1)N1CCOCC1 |  | inconclusive: 8.2 µM [falling, single point]
57 | O=C(COC(=O)c1ccc(NS(=O)(=O)c2cccs2)cc1O)Nc1nc2ccccc2s1 | inconclusive: 2.77% | 
58 | COC(=O)c1ccc(OCC(O)CN2CCc3cc(OC)c(OC)cc3C2c2ccccc2)cc1 (centres undefined) | inactive | 
59 | COc1ccc(C(=O)Nc2ccc3nc(C)c(C)nc3c2)cc1 | inconclusive: -15.7% | 
60 | c1cc2c3c(cccc3c1)NC1(CCCCCC1)N2 | inactive | 
61 | Nc1c(C(=O)Nc2cccc(C(=O)O)c2)sc2nc3c(cc12)CCCC3 |  | inconclusive: 25.1 µM [falling, single point]
62 | O=c1[nH]c(CCl)nc2cc(-c3ccc(F)cc3)sc12 |  | inconclusive: 31.6 µM [rising, single point]
63 | COc1ccccc1C(O)(C(=O)N(NC(C)=O)c1ccccc1)c1ccccc1OC | inconclusive: 8.88% | 
64 | Fc1ccc(/C=N/NC(=S)Nc2cccnc2)cc1 |  | inconclusive: 17.8 µM [falling, partial curve]
65 | COc1nnc(-c2ccc(N3CCOCC3)c(NC(=O)c3ccccc3)c2)c2ccccc12 | inconclusive: -3.39% | 
66 | CN=C1N(C)C[C@@H]2[C@@H]3C(=O)N(C)C(=O)[C@@H]3[C@](C)(C(=O)OC)N12 | inconclusive: 6.85% | 
67 | Cn1c(N)c(C(=O)COC(=O)c2ccc(Br)o2)c(=O)n(C)c1=O | inconclusive: 11.9% | 
68 | Cc1ccc(C2C(=O)N(C3CCCCCC3)CC(=O)N2CCC2=CCCCC2)cc1 (centres undefined) | inactive | 
69 | Cc1oc(-c2cccs2)nc1CS(=O)CC(=O)NCc1ccc2c(c1)OCO2 (centres undefined) | inconclusive: 0.244% | 
70 | CN(c1cc(=O)n2ccccc2n1)C1CCCCC1 | inconclusive: -17.3% | 
71 | CCCc1[nH]n(-c2nc3ccccc3s2)c(=O)c1C=NCC(C)C |  | inconclusive: 29.1 µM [falling, single point]
72 | C/C(=N\NC(=O)c1ccccc1)c1ccc(NC(=O)c2cccs2)cc1 |  | inconclusive: 5.17 µM [falling, single point]
73 | COCc1[nH]nc2c1C(c1c(F)cccc1Cl)C(C#N)=C(N)O2 (centres undefined) | inconclusive: -1.64% | 
74 | O=c1[nH]c(=O)c2nc3ccccc3nc2[nH]1 |  | inconclusive: 0.411 µM [rising, full curve, poor fit]
75 | COc1ccc(C(C)C)cc1S(=O)(=O)N1CCN(C)CC1 |  | inconclusive: 25.9 µM [rising, partial curve, poor fit]
76 | CNC(=O)NC(=O)C(C)OC(=O)c1cc2c(s1)CCCCC2 (centres undefined) | inactive | 
77 | Cc1[nH]n2cnnc2c(=O)c1Br | inconclusive: -18.7% | 
78 | CCOc1ccc(N(CC(=O)Nc2ccc(C)c(F)c2)C2=NC3CS(=O)(=O)CC3S2)cc1 (centres undefined) |  | inconclusive: 3.55 µM [falling, partial curve, poor fit]
79 | CN(C(=O)COC(=O)C1CCN(S(=O)(=O)c2c(Cl)cccc2Cl)CC1)C1CCCCC1 | inactive | 
